Measurements: paper PMC6172191
These are yes or no findings as the source states them, for the method shown. Binding seen in cells or lysates may run through a third protein. Some entries that bind do so weakly or less than the wild type. Sequences can lack the tags named with a protein.

What was measured:
[1] = biological target: T1, EMP1 intracellular loop peptide (…) (human); assay: pull-down; peptide-bound Sepharose beads or control beads with lysates of HEK293 cells transfected with EGFP-copine-III constructs; western blotting; only the target purified
T1 sequence (peptide): FTMEKGNRF

GST-copine-III (human) = GST-copine-III (human) (UniProt O75131); assay: pull-down; GST-copine-III (or GST as control) on glutathione beads with lysates of HEK293 cells transfected with FLAG-EMP1; western blotting; only the target purified

B1: EGFP-copine-III-ΔC2-1 (domain or fragment, UniProt O75131 139-515)
chain: RVVLFEMEARKLDNKDLFGKSDPYLEFHKQTSDGNWLMVHRTEVVKNNLNPVWRPFKISLNSLCYGDMDKTIKVECYDYDNDGSHDLIGTFQTTMTKLKEASRSSPVEFECINEKKRQKKKSYKNSGVISVKQCEITVECTFLDYIMGGCQLNFTVGVDFTGSNGDPRSPDSLHYISPNGVNEYLTALWSVGLVIQDYDADKMFPAFGFGAQIPPQWQVSHEFPMNFNPSNPYCNGIQGIVEAYRSCLPQIKLYGPTNFSPIINHVARFAAAATQQQTASQYFVLLIITDGVITDLDETRQAIVNASRLPMSIIIVGVGGADFSAMEFLDGDGGSLRSPLGEVAIRDIVQFVPFRQFQNAPKEALAQCVLAEIPQQV
In the case of B1, the binding [1] is reported as “binds”.

B2: FLAG-EMP1 (protein, UniProt P54849 1-157)
chain: MLVLLAGIFVVHIATVIMLFVSTIANVWLVSNTVDASVGLWKNCTNISCSDSLSYASEDALKTVQAFMILSIIFCVIALLVFVFQLFTMEKGNRFFLSGATTLVCWLCILVGVSIYTSHYANRDGTQYHHGYSYILGWICFCFSFIIGVLYLVLRKK
modifications: glycosylated (site not stated)
In the case of B2, the binding (GST-copine-III (human)) is reported as “binds”.

B3: EGFP-copine-III-ΔC2-2 (domain or fragment, UniProt O75131)
chain: TKVALNVSCANLLDKDIGSKSDPLCVLFLNTSGQQWYEVERTERIKNCLNPQFSKTFIIDYYFEVVQKLKFGVYDIDNKTIELSDDDFLGECECTLGQIVSSKKLTRPLVMKTGRPAGKNSGVISVKQCEITVECTFLDYIMGGCQLNFTVGVDFTGSNGDPRSPDSLHYISPNGVNEYLTALWSVGLVIQDYDADKMFPAFGFGAQIPPQWQVSHEFPMNFNPSNPYCNGIQGIVEAYRSCLPQIKLYGPTNFSPIINHVARFAAAATQQQTASQYFVLLIITDGVITDLDETRQAIVNASRLPMSIIIVGVGGADFSAMEFLDGDGGSLRSPLGEVAIRDIVQFVPFRQFQNAPKEALAQCVLAEIPQQV
With B3 the binding [1] was “no binding”.

B4: EGFP-copine-III-ΔVWA (domain or fragment, UniProt O75131 7-251)
chain: TKVALNVSCANLLDKDIGSKSDPLCVLFLNTSGQQWYEVERTERIKNCLNPQFSKTFIIDYYFEVVQKLKFGVYDIDNKTIELSDDDFLGECECTLGQIVSSKKLTRPLVMKTGRPAGKGSITISAEEIKDNRVVLFEMEARKLDNKDLFGKSDPYLEFHKQTSDGNWLMVHRTEVVKNNLNPVWRPFKISLNSLCYGDMDKTIKVECYDYDNDGSHDLIGTFQTTMTKLKEASRSSPVEFECIN
With B4 the binding [1] was “no binding”.
